{"sequences": {"note": "The chains behind the UniProt entries cited, without tags or fusion partners. Where a name states a change or a piece, a line headed by the entry shows the natural chain unless it says otherwise. Residues count along the entry.", "UniProt P36956": "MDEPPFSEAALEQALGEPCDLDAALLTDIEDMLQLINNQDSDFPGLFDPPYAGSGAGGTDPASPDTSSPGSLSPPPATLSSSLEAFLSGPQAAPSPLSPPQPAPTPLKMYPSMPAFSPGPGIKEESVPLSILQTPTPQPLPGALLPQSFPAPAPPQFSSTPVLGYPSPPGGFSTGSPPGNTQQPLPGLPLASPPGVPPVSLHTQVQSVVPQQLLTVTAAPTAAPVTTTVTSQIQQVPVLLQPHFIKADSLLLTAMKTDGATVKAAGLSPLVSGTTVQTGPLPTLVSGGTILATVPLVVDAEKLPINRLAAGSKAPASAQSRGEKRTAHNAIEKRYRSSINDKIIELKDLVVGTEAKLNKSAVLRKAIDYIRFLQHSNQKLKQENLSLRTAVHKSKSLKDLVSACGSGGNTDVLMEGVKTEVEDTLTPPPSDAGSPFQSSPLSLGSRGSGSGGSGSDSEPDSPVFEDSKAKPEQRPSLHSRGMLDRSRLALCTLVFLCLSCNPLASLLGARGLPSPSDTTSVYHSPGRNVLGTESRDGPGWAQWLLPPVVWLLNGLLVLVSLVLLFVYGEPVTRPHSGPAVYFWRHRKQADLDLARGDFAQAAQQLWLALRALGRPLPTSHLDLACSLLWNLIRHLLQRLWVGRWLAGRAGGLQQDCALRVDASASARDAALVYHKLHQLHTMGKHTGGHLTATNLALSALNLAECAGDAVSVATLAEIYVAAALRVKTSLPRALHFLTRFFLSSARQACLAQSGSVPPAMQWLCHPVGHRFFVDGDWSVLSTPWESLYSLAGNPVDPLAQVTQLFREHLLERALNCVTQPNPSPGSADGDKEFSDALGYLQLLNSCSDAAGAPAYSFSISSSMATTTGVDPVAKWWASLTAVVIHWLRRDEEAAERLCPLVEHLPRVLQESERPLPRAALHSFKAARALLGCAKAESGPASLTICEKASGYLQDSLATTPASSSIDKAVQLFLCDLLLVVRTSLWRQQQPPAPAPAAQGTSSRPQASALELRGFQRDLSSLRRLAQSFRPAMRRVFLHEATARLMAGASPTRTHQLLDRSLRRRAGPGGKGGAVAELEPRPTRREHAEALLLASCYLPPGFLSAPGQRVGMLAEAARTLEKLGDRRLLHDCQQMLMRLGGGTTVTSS", "UniProt P56720": "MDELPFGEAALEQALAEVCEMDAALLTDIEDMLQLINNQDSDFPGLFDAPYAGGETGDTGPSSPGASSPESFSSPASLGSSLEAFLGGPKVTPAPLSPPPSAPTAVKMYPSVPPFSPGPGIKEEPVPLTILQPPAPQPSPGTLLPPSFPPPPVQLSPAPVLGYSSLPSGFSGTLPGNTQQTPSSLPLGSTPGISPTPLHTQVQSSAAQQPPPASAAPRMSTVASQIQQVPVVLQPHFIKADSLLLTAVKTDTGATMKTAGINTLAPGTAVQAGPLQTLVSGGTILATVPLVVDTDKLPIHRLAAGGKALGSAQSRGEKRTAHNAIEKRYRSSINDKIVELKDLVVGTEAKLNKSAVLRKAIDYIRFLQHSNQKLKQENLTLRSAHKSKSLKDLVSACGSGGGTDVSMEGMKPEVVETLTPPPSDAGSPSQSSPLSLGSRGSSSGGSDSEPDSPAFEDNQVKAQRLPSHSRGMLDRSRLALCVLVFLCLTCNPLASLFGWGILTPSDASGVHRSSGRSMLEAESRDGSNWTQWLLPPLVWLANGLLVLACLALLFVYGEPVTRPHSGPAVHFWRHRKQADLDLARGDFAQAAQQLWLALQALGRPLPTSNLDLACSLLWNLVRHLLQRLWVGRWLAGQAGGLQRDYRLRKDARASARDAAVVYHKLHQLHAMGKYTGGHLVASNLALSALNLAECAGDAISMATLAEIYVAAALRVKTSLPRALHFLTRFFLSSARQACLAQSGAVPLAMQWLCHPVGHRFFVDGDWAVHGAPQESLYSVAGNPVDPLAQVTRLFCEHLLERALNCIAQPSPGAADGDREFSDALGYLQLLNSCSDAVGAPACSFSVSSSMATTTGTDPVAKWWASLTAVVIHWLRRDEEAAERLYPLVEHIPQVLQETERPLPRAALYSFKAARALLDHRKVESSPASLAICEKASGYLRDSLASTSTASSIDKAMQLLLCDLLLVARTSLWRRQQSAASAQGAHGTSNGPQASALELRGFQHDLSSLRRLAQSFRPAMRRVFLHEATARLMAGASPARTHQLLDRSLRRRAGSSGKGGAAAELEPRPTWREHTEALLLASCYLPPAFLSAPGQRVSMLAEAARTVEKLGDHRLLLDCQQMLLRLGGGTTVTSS", "UniProt Q15843, residues 1-76": "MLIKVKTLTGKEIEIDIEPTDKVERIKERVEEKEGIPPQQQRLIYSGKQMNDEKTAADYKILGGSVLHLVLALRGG", "UniProt Q00987": "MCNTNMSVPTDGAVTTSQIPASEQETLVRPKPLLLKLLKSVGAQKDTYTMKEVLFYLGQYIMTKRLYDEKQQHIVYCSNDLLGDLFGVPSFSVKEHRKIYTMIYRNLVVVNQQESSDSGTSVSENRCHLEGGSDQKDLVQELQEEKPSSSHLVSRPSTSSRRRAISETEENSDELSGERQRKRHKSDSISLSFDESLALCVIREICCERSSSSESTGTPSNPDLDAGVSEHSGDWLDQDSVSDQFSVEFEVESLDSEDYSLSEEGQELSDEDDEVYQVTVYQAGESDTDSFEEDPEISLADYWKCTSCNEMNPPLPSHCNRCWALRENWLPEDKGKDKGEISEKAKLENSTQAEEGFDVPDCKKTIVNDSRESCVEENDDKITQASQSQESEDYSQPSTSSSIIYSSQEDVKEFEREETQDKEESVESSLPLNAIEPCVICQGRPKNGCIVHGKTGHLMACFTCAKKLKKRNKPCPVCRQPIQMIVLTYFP"}, "source": "paper PMC7181738", "key": {"[1]": {"target": "sterol regulatory element-binding protein 1c (human (endogenous in HepG2)) (UniProt P36956)", "assay": "co-IP; endogenous proteins; HepG2 cells exposed to OA (500 μM) for 24 h; nuclear lysates immunoprecipitated by anti-SREBP1c antibody; immunoblotting"}, "Flag-SREBP1c (rat)": {"target": "Flag-SREBP1c (rat) (UniProt P56720)", "assay": "co-IP; HEK293 cells cotransfected with Flag-SREBP1c and HDM2 for 48 h; lysate with anti-Flag M2 affinity beads 16 h at 4 °C; eluted with 1× FLAG peptide; Western blotting"}, "[2]": {"target": "neural precursor cell-expressed, developmentally downregulated 8 (human (endogenous in HepG2)) (UniProt Q15843)", "assay": "condition: only with an siRNA for the E1 enzyme APPBP1; co-IP; as a1, HepG2 cells treated with OA and an siRNA for the E1 enzyme APPBP1"}, "[3]": {"target": "neural precursor cell-expressed, developmentally downregulated 8 (human (endogenous in HepG2)) (UniProt Q15843)", "assay": "co-IP; as a1, HepG2 cells treated with OA and the neddylation inhibitor MLN4924"}, "[4]": {"target": "neural precursor cell-expressed, developmentally downregulated 8 (human (endogenous in HepG2)) (UniProt Q15843)", "assay": "co-IP; endogenous proteins; HepG2 cells treated with OA (500 μM) for 24 h; lysate (1.5 mg) with anti-NEDD8 (10 μg) at 4 °C overnight, Protein A/G Sepharose beads; Western blotting"}}, "note": "Results are given in words; binding and its absence hold for the method and conditions named. In cells and extracts the contact can be indirect. For part of these data: A result given as binding can be weak or reduced; the word gives no strength."}
{"substance": "human homolog of mouse double minute 2 (from UniProt Q00987 1-491)", "values": [{"measurement": "binding", "setting": "[1]", "result": "binds"}]}
{"substance": "HDM2 (pcHDM2) (from UniProt Q00987 1-491)", "values": [{"measurement": "binding", "setting": "Flag-SREBP1c (rat)", "result": "binds"}]}
{"substance": "neural precursor cell-expressed, developmentally downregulated 8 (from UniProt Q15843 1-76)", "values": [{"measurement": "binding", "setting": "[1]", "result": "binds"}]}
{"substance": "sterol regulatory element-binding protein 1c (from UniProt P36956-3)", "values": [{"measurement": "binding", "setting": "[2]", "result": "no binding"}, {"measurement": "binding", "setting": "[3]", "result": "no binding (only with MLN4924)"}, {"measurement": "binding", "setting": "[4]", "result": "binds"}]}
